Measured values reported in the supplement of paper PMC3682954.
Several values for one entry are separate records, joined by “and”; a condition that tells them apart may be missing. Equal values may be shown once. Where a name gives a salt, the structure may show the parent alone. ± gives the standard deviation of the averaged measurements. Some of the results follow. Most values come without repeats; read them as rough.

Test system: RAW 264.7
Assay: HMGB1-induced TNF-alpha production relative to HMGB1-stimulated control; higher = more TNF-alpha secretion (less inhibition)
Details: stimulus: HMGB1 5 ug/ml, 18 h
[1] = compound concentration: 1 ug/ml

Structure (SMILES)	HMGB1-induced TNF-alpha production (compound concentration: 3 uM)	HMGB1-induced TNF-alpha production [1] [%]
Clc1ccc(C(c2ccc(Cl)cc2)[n+]2ccn(CC(OCc3ccc(Cl)cc3Cl)c3ccc(Cl)cc3Cl)c2)cc1 (stereo not drawn) [Calmidazolium chloride]	76.5%	
O=c1c(-c2ccc(O)cc2)coc2cc(O)ccc12		65.3
O=c1c(-c2ccc(O)cc2)coc2cc(O)ccc12 [Daidzein]	94.7%	
CC(C)NC[C@H](O)COc1cccc2ccccc12 [(S)-propranolol hydrochloride]	111%	
CC(C)NC[C@H](O)COc1cccc2ccccc12 [(S)-Propranolol hydrochloride]	91.9%	
CC(C)NC[C@H](O)COc1cccc2ccccc12 [Propranolol S(-)]	102%	
CC1(C)CC[C@]2(C(=O)O)CC[C@]3(C)C(=CC[C@@H]4[C@@]5(C)CC[C@H](O)C(C)(C)[C@@H]5CC[C@]43C)[C@@H]2C1 [Oleanolic acid; oleanol;  caryophyllin]		73.3
CN1C(=O)OC(C)(C)C1=O	91.4%	
CN1C(=O)OC(C)(C)C1=O [Trimethadione]	59.8%	
CC(=O)CCCCn1c(=O)c2c(ncn2C)n(C)c1=O [Pentoxifylline]	100 ± 15%	
CC(=O)CCCCn1c(=O)c2c(ncn2C)n(C)c1=O	81.3%	
CC(=O)O[C@@H]1C[C@]2(C)[C@@H](C(C)=O)CC[C@H]2[C@@H]2CCC3=CC(=O)CC[C@]3(C)[C@H]21 [11-alpha-Acetoxyprogesterone]		59.4
CN(C/C=C/c1ccccc1)Cc1cccc2ccccc12 [Naftifine hydrochloride]	108%	
OCCN1CCN(CCCN2c3ccccc3C=Cc3ccccc32)CC1 [Opipramol dihydrochloride]	88.9 ± 1.9%	
O=C(O)C=C1CCCc2ccccc2C1O (stereo not drawn)	121%	
CN(C)CCCSC(=N)N [Dimaprit dihydrochloride]	98.5%	
CCCC(CCC)C(=O)O[C@H]1C[C@H]2CC[C@@H](C1)[N+]2(C)C [Anisotropine methyl bromide]	101%	
NCCNCCNCCN	93.7%	
Cc1onc(-c2c(F)cccc2Cl)c1C(=O)N[C@@H]1C(=O)N2[C@@H]1SC(C)(C)[C@@H]2C(=O)O [Flucloxacillin sodium]	90%	
O=C(CCc1ccc(O)cc1)c1c(O)cc(O)cc1O[C@@H]1OC(CO)[C@@H](O)[C@@H](O)C1O (stereo partly drawn) [Phloridzin]	106%	
Cc1c(C(=O)O)c(O)cc2c1C(=O)c1c(O)c([C@H]3O[C@H](CO)[C@@H](O)[C@H](O)[C@H]3O)c(O)c(O)c1C2=O		68.7
O=C(NCCN1CCOCC1)c1ccc(Cl)cc1 [Moclobemide]	97.6 ± 30%	
O=C(NCCN1CCOCC1)c1ccc(Cl)cc1 [4-Chloro-N-(2-morpholin-4-yl-ethyl)-benzamide]	118%	
COc1c(C)c2c(c(O)c1C/C=C(\C)CCC(=O)O)C(=O)OC2 [Mycophenolic acid]		-9.9
COc1c(C)c2c(c(O)c1C/C=C(\C)CCC(=O)O)C(=O)OC2 [Mycophenolic Acid]	17.8%	
COc1c(C)c2c(c(O)c1C/C=C(\C)CCC(=O)O)C(=O)OC2	25.4 ± 3.3%	

Some values from the results shown:
Clc1ccc(C(c2ccc(Cl)cc2)[n+]2ccn(CC(OCc3ccc(Cl)cc3Cl)c3ccc(Cl)cc3Cl)c2)cc1 (stereo not drawn) [Calmidazolium chloride] – HMGB1-induced TNF-alpha production (compound concentration: 3 uM): 76.5%
O=C(CCc1ccc(O)cc1)c1c(O)cc(O)cc1O[C@@H]1OC(CO)[C@@H](O)[C@@H](O)C1O (stereo partly drawn) [Phloridzin] – HMGB1-induced TNF-alpha production (compound concentration: 3 uM): 106%
Cc1c(C(=O)O)c(O)cc2c1C(=O)c1c(O)c([C@H]3O[C@H](CO)[C@@H](O)[C@H](O)[C@H]3O)c(O)c(O)c1C2=O – HMGB1-induced TNF-alpha production [1] [%]: 68.7
CCCC(CCC)C(=O)O[C@H]1C[C@H]2CC[C@@H](C1)[N+]2(C)C [Anisotropine methyl bromide] – HMGB1-induced TNF-alpha production (compound concentration: 3 uM): 101%
CC(C)NC[C@H](O)COc1cccc2ccccc12 [Propranolol S(-)] – HMGB1-induced TNF-alpha production (compound concentration: 3 uM): 102%

Additional results:

Structure (SMILES)	HMGB1-induced TNF-alpha production (compound concentration: 3 uM)	HMGB1-induced TNF-alpha production [1] [%]
O=C(O)c1ccc(S(=O)(=O)N(Cl)Cl)cc1	90.1%	
O=C(Oc1ccccc1C(=O)O)c1ccccc1O	84.4%	
CCCCCNC(=N)N/N=C/c1c[nH]c2ccc(OC)cc12	96.1%	
NS(=O)(=O)c1cc(Cl)c(Cl)c(S(N)(=O)=O)c1 [Dichlorphenamide]	111%	
CCN1CCCC(OC(=O)C(c2ccccc2)c2ccccc2)C1 (stereo not drawn) [Piperidolate hydrochloride]	130%	
CCN1CCCC(OC(=O)C(c2ccccc2)c2ccccc2)C1 (stereo not drawn)	97%	
Nc1ccc(C(=O)O)cc1	43%	
Cc1ccc2oc(-c3ccccc3)c(O)c(=O)c2c1 [6-Methylflavonol]		77.5
COc1cc(C(O)CO)ccc1OS(=O)(=O)O (stereo not drawn) [MHPG sulfate potassium]	101%	
COC(=O)c1c(C)[nH]c(C)c1C(=O)c1ccccc1Cc1ccccc1	90.6%	
Nc1cn([C@@H]2O[C@H](CO)[C@H](O)C2O)c(=O)[nH]c1=O (stereo partly drawn) [5-Aminouridine hydrochloride]		81.1
CCCC1O[C@@H]2C[C@H]3[C@@H]4CCC5=CC(=O)C=C[C@]5(C)[C@H]4[C@@H](O)C[C@]3(C)[C@]2(C(=O)CO)O1 (stereo partly drawn) [Budesonide]	34 ± 10%	
CCCC1O[C@@H]2C[C@H]3[C@@H]4CCC5=CC(=O)C=C[C@]5(C)[C@H]4[C@@H](O)C[C@]3(C)[C@]2(C(=O)CO)O1 (stereo partly drawn)	39.4%	
NCCC1CCCC(CCN)N1 (stereo not drawn) [MDL 26,630 trihydrochloride]	119%	
CCCCCCCCCCCCCCCCCCOCC(COP(=O)([O-])OCC[N+](C)(C)C)OC (stereo not drawn)	112%	
CN1[C@@H]2CC[C@H]1CC(OC(=O)c1c[nH]c3ccccc13)C2 (stereo partly drawn) [3-Tropanyl-indole-3-carboxylate hydrochloride]	100%	
COc1ccc(-c2oc3ccc(C)cc3c(=O)c2O)cc1OC [3',4'-Dimethoxy-3-hydroxy-6-methylflavone]		52.7
CC[C@H](NC(=O)c1c(C)c(-c2ccccc2)nc2ccccc12)c1ccccc1	96.6%	
COc1cc(/C=C/c2ccc(O)cc2)cc(OC)c1	92.5%	
NCC(O)(CS(=O)(=O)O)c1ccc(Cl)cc1 (stereo not drawn) [2-Hydroxysaclofen]	104%	
O=NN(CCCl)C(=O)NCCCl	103 ± 21%	
O=NN(CCCl)C(=O)NCCCl [Carmustine]	77.8%	
CCOC(=O)c1ncn2c1CN(C)C(=O)c1cc(F)ccc1-2 [Flumazenil]	90.2 ± 2.9%	
CCOC(=O)c1ncn2c1CN(C)C(=O)c1cc(F)ccc1-2	102% and 90.7%	
CC1=C(/C=C/C(C)=C/C=C/C(C)=C/C=C/C=C(C)/C=C/C=C(C)/C=C/C2=C(C)C(=O)CCC2(C)C)C(C)(C)CCC1=O [Canthaxanthin]	108%	
O=C1O/C(=C/Br)CCC1c1cccc2ccccc12 (stereo not drawn) [Bromoenol lactone]	27.4%	

Structure (SMILES)	HMGB1-induced TNF-alpha production (compound concentration: 3 uM)	HMGB1-induced TNF-alpha production [1] [%]
Nc1nc(N)c2nc(CNc3ccc(C(=O)N[C@@H](CCC(=O)O)C(=O)O)cc3)cnc2n1 [Aminopterin]	90.1%	
Nc1nc(N)c2nc(CNc3ccc(C(=O)N[C@@H](CCC(=O)O)C(=O)O)cc3)cnc2n1	72.3%	
N[C@@H](CSCC(=O)O)C(=O)O [S-Carboxymethyl-L-cysteine]		72.5
CC(C(=O)O)c1cccc(C(=O)c2ccccc2)c1 (stereo not drawn)	82.6%	
CC(C(=O)O)c1cccc(C(=O)c2ccccc2)c1 (stereo not drawn) [Ketoprofen]	94.7 ± 12%	
NC(CCCP(=O)(O)O)C(=O)O (stereo not drawn) [D(-)-2-Amino-5-phosphonopentanoic acid]	90.6%	
C#C[C@]1(O)CC[C@H]2[C@@H]3CCc4cc(O)ccc4[C@H]3CC[C@@]21C	92% and 100%	
C#C[C@]1(O)CC[C@H]2[C@@H]3CCc4cc(O)ccc4[C@H]3CC[C@@]21C [Ethinylestradiol]	100%	
CCCCN(CCCC)CCC(O)c1cc2c(Cl)cc(Cl)cc2c2cc(C(F)(F)F)ccc12 (stereo not drawn) [Halofantrine hydrochloride]	91.4%	
Cc1occc(=O)c1O	115%	
CO[C@H]1O[C@H](CO)C(O[C@@H]2OC(C(=O)O)[C@@H](O[C@H]3O[C@H](COS(=O)(=O)O)C(O[C@@H]4OC(C(=O)O)[C@@H](O[C@H]5O[C@H](CO)C(O[C@@H]6OC(C(=O)O)[C@@H](O[C@H]7O[C@H](COS(=O)(=O)O)C(O[C@@H]8OC(C(=O)O)=C[C@H](O)C8OS(=O)(=O)O)[C@H](O)[C@H]7NC(C)=O)[C@H](O)[C@H]6O)[C@H](O)[C@H]5NC(C)=O)[C@H](O)[C@H]4O)[C@H](O)[C@H]3NC(C)=O)[C@H](O)[C@H]2O)[C@H](O)[C@H]1NC(C)=O (stereo partly drawn)	84.8%	
CCOC(=O)C1=C(C)NC(C)=C(C(=O)OCC)C1c1ccccc1/C=C/C(=O)OC(C)(C)C [Lacidipine]	106 ± 19%	
CCOC(=O)C1=C(C)NC(C)=C(C(=O)OCC)C1c1ccccc1/C=C/C(=O)OC(C)(C)C	100%	
CCOc1cc(CC(=O)N[C@@H](CC(C)C)c2ccccc2N2CCCCC2)ccc1C(=O)O [Repaglinide]	120%	
CCOc1cc(CC(=O)N[C@@H](CC(C)C)c2ccccc2N2CCCCC2)ccc1C(=O)O	105 ± 17%	
COc1ncnc(NS(=O)(=O)c2ccc(N)cc2)c1OC [Sulfadoxine]	120 ± 25%	
COc1ncnc(NS(=O)(=O)c2ccc(N)cc2)c1OC	105%	
CC(=O)OCC(=O)[C@@]1(O)[C@H](C)C[C@H]2[C@@H]3CCC4=CC(=O)C=C[C@]4(C)[C@@]3(F)[C@@H](O)C[C@@]21C [Dexamethasone acetate]	23.5%	
CC(=O)OCC(=O)[C@@]1(O)[C@H](C)C[C@H]2[C@@H]3CCC4=CC(=O)C=C[C@]4(C)[C@@]3(F)[C@@H](O)C[C@@]21C [dexamethasone 21-acetate]		36.8
CC(=O)OCC(=O)[C@@]1(O)[C@H](C)C[C@H]2[C@@H]3CCC4=CC(=O)C=C[C@]4(C)[C@@]3(F)[C@@H](O)C[C@@]21C	28.8%	
CC1(C)CCC[C@]2(C)[C@H]3CC(=O)O[C@]3(C)CC[C@@H]12 [(3aR)-(+)-Sclareolide]		74.6
COc1c(N2C[C@@H]3CCCN[C@@H]3C2)c(F)cc2c(=O)c(C(=O)O)cn(C3CC3)c12 [Moxifloxacin]	98.7%	
COc1c(N2C[C@@H]3CCCN[C@@H]3C2)c(F)cc2c(=O)c(C(=O)O)cn(C3CC3)c12	93.5% and 96%	
COc1ccc(C(=O)c2ccccc2)c(O)c1	91.9%	
COc1ccc(C(=O)c2ccccc2)c(O)c1 [Oxybenzone]	113%	
COc1ccc(C(=O)CC(=O)c2ccc(C(C)(C)C)cc2)cc1	62.2%	
